{"source": "patent US20020177166A1", "about": "“Binding motif of a receptor” (MEDVET SCIENCE PTY.LTD., priority 2000, published 2002)", "system": "PI 3-kinase", "assay": "PI 3-kinase lipid kinase assay on anti-phosphotyrosine immunoprecipitates of CTL-EN cells", "type": "cell-based", "details": "CTL-EN wtβc", "note": "For at least one compound, name, drawing or mass did not settle the structure."}
{"smiles": "COC[C@H]1OC(=O)c2coc3c2[C@@]1(C)C1=C(C3=O)[C@@H]2CCC(=O)[C@@]2(C)C[C@H]1OC(C)=O", "note": "[Wortmannin]", "values": [{"measurement": "effect on IL-3 stimulated PI 3-kinase activity", "value": "blocked"}]}
